# Counter-ions that a name gives are not always drawn. The list shows a part of the results. Most values lie within the scatter of the assay; repeated measurements hardly agree.
# Tested on: Brugia pahangi adult female
# Test: motility inhibition on day 3 relative to DMSO vehicle; higher = more active
# Conditions: 10 µM; 3 days
row,Structure (SMILES),motility inhibition on day 3
1,CC1(C)S[C@@H]2[C@H](NC(=O)[C@H](C(=O)O)c3ccsc3)C(=O)N2[C@H]1C(=O)O [ticarcillin disodium],15.8%
2,CCOC(=O)n1ccn(C)c1=S [carbimazole],24.8%
3,CC1(O)CCC(C(C)(C)O)CC1 (centres undefined) [terpene hydrate],40.2%
4,CCC(=O)Oc1ccc2c(c1)CC[C@@H]1[C@@H]2CC[C@]2(C)[C@@H](OC(=O)CC)CC[C@@H]12 [estradiol dipropionate],18.9%
5,O=C1CN(/N=C/c2ccc(-c3ccc([N+](=O)[O-])cc3)o2)C(=O)N1 [dantrolene sodium],0.665%
6,CC(C)OC(=O)CCC/C=C\C[C@@H]1[C@@H](/C=C/[C@@H](O)COc2cccc(C(F)(F)F)c2)[C@H](O)C[C@@H]1O [travoprost],15.4%
7,CCN(CC)CCOc1ccc2c(c1)C(=O)c1cc(OCCN(CC)CC)ccc1-2 [tilorone],7.97%
8,CC1(C)O[C@@H]2C[C@H]3[C@@H]4CCC5=CC(=O)C=C[C@]5(C)[C@H]4[C@@H](O)C[C@]3(C)[C@]2(C(=O)CO)O1 [desonide],6.81%
9,CCNC(=O)CCC/C=C\C[C@@H]1[C@@H](/C=C/[C@@H](O)CCc2ccccc2)[C@H](O)C[C@@H]1O [Bimatoprost],2.2%
10,NC[C@H]1O[C@H](O[C@H]2[C@H](O)[C@@H](O[C@H]3O[C@H](CO)[C@@H](O)[C@H](N)[C@H]3O)[C@H](N)C[C@@H]2N)[C@H](O)[C@@H](O)[C@@H]1O [kanamycin sulfate],31%
11,CC[C@H]1OC(=O)C[C@@H](O)[C@H](C)[C@@H](O[C@@H]2O[C@H](C)[C@@H](O[C@H]3C[C@@](C)(O)[C@@H](O)[C@H](C)O3)[C@H](N(C)C)[C@H]2O)[C@@H](CC=O)C[C@@H](C)C(=O)/C=C/C(C)=C/[C@@H]1CO[C@@H]1O[C@H](C)[C@@H](O)[C@@H](OC)[C@H]1OC [tylosin tartrate],0.958%
12,O=C(CCCCCCC(=O)Nc1ccccc1)NO [vorinostat],0.247%
13,"Nc1c2c(nc3ccccc13)CCCC2 [9-Amino-1,2,3,4-tetrahydroacridine hydrochloride]",28%
14,C/C(=C(\CCOP(=O)(O)O)SC(=O)c1ccccc1)N(C=O)Cc1cnc(C)nc1N [benfotiamine],< 0%
15,CCN(CC)C(=S)SSC(=S)N(CC)CC [disulfiram],67%
16,C=C[C@@]1(C)CC(=O)[C@]2(O)[C@@]3(C)[C@@H](O)CCC(C)(C)[C@@H]3[C@H](O)[C@H](OC(C)=O)[C@@]2(C)O1 [colforsin],6.26%
17,CN(Cc1cnc2nc(N)nc(N)c2n1)c1ccc(C(=O)NC(CCC(=O)O)C(=O)O)cc1 (racemic) [methotrexate(+/-)],28.2%
18,CCOc1cc(CC(=O)N[C@@H](CC(C)C)c2ccccc2N2CCCCC2)ccc1C(=O)O [repaglinide],9.47%
19,C#C[C@]1(O)CC[C@H]2[C@@H]3CCc4cc(O)ccc4[C@H]3CC[C@@]21C [ethinyl estradiol],18.5%
20,CCCCCN(CCCCC)C(=O)C(CCC(=O)O)NC(=O)c1ccc(Cl)c(Cl)c1 (centres undefined) [Lorglumide sodium],19.8%
21,CC(C)(C)NC(=O)[C@@H]1C[C@@H]2CCCC[C@@H]2CN1C[C@@H](O)[C@H](Cc1ccccc1)NC(=O)[C@H](CC(N)=O)NC(=O)c1ccc2ccccc2n1 [Saquinavir Mesylate],1.24%
22,Nc1nc2c(ncn2COCCO)c(=O)[nH]1 [Acyclovir],33.1%

# Some of the entries above, set out differently.
row	Structure (SMILES)	motility inhibition on day 3
3	CC1(O)CCC(C(C)(C)O)CC1 (centres undefined) [terpene hydrate]	40.2%
8	CC1(C)O[C@@H]2C[C@H]3[C@@H]4CCC5=CC(=O)C=C[C@]5(C)[C@H]4[C@@H](O)C[C@]3(C)[C@]2(C(=O)CO)O1 [desonide]	6.81%
9	CCNC(=O)CCC/C=C\C[C@@H]1[C@@H](/C=C/[C@@H](O)CCc2ccccc2)[C@H](O)C[C@@H]1O [Bimatoprost]	2.2%
10	NC[C@H]1O[C@H](O[C@H]2[C@H](O)[C@@H](O[C@H]3O[C@H](CO)[C@@H](O)[C@H](N)[C@H]3O)[C@H](N)C[C@@H]2N)[C@H](O)[C@@H](O)[C@@H]1O [kanamycin sulfate]	31%
11	CC[C@H]1OC(=O)C[C@@H](O)[C@H](C)[C@@H](O[C@@H]2O[C@H](C)[C@@H](O[C@H]3C[C@@](C)(O)[C@@H](O)[C@H](C)O3)[C@H](N(C)C)[C@H]2O)[C@@H](CC=O)C[C@@H](C)C(=O)/C=C/C(C)=C/[C@@H]1CO[C@@H]1O[C@H](C)[C@@H](O)[C@@H](OC)[C@H]1OC [tylosin tartrate]	0.958%
12	O=C(CCCCCCC(=O)Nc1ccccc1)NO [vorinostat]	0.247%
13	Nc1c2c(nc3ccccc13)CCCC2 [9-Amino-1,2,3,4-tetrahydroacridine hydrochloride]	28%
17	CN(Cc1cnc2nc(N)nc(N)c2n1)c1ccc(C(=O)NC(CCC(=O)O)C(=O)O)cc1 (racemic) [methotrexate(+/-)]	28.2%
18	CCOc1cc(CC(=O)N[C@@H](CC(C)C)c2ccccc2N2CCCCC2)ccc1C(=O)O [repaglinide]	9.47%
19	C#C[C@]1(O)CC[C@H]2[C@@H]3CCc4cc(O)ccc4[C@H]3CC[C@@]21C [ethinyl estradiol]	18.5%
22	Nc1nc2c(ncn2COCCO)c(=O)[nH]1 [Acyclovir]	33.1%

# Further entries:

row,Structure (SMILES),motility inhibition on day 3
1,COc1ccc(C(=O)CC(=O)c2ccc(C(C)(C)C)cc2)cc1 [avobenzone],9.49%
2,COc1ncnc(NS(=O)(=O)c2ccc(N)cc2)c1OC [sulfadoxine],7.71%
3,CC(=O)OCC(=O)[C@@]1(O)[C@H](C)C[C@H]2[C@@H]3CCC4=CC(=O)C=C[C@]4(C)[C@@]3(F)[C@@H](O)C[C@@]21C [dexamethasone acetate],2.37%
4,COc1c(N2C[C@@H]3CCCN[C@@H]3C2)c(F)cc2c(=O)c(C(=O)O)cn(C3CC3)c12 [moxifloxacin hydrochloride],< 0%
5,COc1ccc(C(=O)c2ccccc2)c(O)c1 [oxybenzone],13.7%
6,CN1[C@@H]2CC[C@H]1CC(OC(=O)c1c[nH]c3ccccc13)C2 (some centres undefined) [3-Tropanyl-indole-3-carboxylate hydrochloride],< 0%
7,CCCC1O[C@@H]2C[C@H]3[C@@H]4CCC5=CC(=O)C=C[C@]5(C)[C@H]4[C@@H](O)C[C@]3(C)[C@]2(C(=O)CO)O1 (some centres undefined) [budesonide],< 0%
8,CCOC(=O)[C@H](CCc1ccccc1)N[C@H]1CCCN2CCC[C@@H](C(=O)O)N2C1=O [Cilazapril],< 0%
9,Nc1nc(N)c2nc(CNc3ccc(C(=O)N[C@@H](CCC(=O)O)C(=O)O)cc3)cnc2n1 [Aminopterin],< 0%
10,CC(C(=O)O)c1cccc(C(=O)c2ccccc2)c1 (centres undefined) [ketoprofen],33.4%
11,CCOC(=O)c1ncn2c1CN(C)C(=O)c1cc(F)ccc1-2 [flumazenil],6.86%
12,O=NN(CCCl)C(=O)NCCCl [carmustine],< 0%
13,C/N=C(\NC)NCc1ccccc1 [Bethanidine],10%
14,CC(=O)CCCCn1c(=O)c2c(ncn2C)n(C)c1=O [Pentoxifylline],2.19%
15,CN1C(=O)OC(C)(C)C1=O [trimethadione],5.86%
16,CN(C/C=C/c1ccccc1)Cc1cccc2ccccc12 [naftifine hydrochloride],11.3%
17,C[C@H]1O[C@@H](n2cc(F)c(=O)[nH]c2=O)[C@H](O)[C@@H]1O [5-fluoro-5'-deoxyuridine],22.1%
18,CCN1CCCC(OC(=O)C(c2ccccc2)c2ccccc2)C1 (centres undefined) [piperidolate hydrochloride],< 0%
19,Nc1ccc(C(=O)O)cc1 [potassium p-aminobenzoate],< 0%
20,O=C(O)c1ccc(S(=O)(=O)N(Cl)Cl)cc1 [halazone],35.6%
21,O=C(Oc1ccccc1C(=O)O)c1ccccc1O [salsalate],< 0%
22,COc1c(C)c2c(c(O)c1C/C=C(\C)CCC(=O)O)C(=O)OC2 [mycophenolic acid],24.2%
